Measurements as given in the supplement of paper PMC10849652.
This is one part of the list.

Sequences of proteins named here, by UniProt entry; tags and fusion partners are left off. A change or cut given only in a name is not applied to a line headed by its entry.
UniProt P35637: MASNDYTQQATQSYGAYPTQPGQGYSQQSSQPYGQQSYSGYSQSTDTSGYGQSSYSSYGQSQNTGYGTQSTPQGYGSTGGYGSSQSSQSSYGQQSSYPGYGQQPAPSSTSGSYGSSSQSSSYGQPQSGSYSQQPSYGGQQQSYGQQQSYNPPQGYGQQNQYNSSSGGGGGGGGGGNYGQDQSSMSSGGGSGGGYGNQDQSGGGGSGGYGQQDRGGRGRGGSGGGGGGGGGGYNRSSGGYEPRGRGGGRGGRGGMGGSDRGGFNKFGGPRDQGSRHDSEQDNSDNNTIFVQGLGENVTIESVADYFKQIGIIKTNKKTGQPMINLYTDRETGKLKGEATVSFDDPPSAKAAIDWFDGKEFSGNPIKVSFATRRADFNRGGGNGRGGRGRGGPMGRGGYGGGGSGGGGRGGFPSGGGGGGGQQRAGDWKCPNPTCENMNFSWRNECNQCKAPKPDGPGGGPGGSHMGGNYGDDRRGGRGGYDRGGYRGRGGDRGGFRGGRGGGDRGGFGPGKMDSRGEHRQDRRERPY
UniProt P50395: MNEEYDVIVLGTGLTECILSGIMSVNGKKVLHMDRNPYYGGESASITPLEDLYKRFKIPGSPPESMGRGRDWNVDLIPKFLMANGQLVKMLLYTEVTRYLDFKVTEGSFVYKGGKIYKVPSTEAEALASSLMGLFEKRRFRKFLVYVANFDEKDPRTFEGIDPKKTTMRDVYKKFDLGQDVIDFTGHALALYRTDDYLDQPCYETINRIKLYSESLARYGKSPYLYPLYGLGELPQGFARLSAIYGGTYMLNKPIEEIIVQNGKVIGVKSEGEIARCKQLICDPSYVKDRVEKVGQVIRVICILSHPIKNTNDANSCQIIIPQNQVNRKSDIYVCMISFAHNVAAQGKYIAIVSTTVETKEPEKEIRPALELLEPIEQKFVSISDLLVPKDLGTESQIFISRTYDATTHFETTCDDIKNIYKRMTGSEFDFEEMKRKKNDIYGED
UniProt O75600: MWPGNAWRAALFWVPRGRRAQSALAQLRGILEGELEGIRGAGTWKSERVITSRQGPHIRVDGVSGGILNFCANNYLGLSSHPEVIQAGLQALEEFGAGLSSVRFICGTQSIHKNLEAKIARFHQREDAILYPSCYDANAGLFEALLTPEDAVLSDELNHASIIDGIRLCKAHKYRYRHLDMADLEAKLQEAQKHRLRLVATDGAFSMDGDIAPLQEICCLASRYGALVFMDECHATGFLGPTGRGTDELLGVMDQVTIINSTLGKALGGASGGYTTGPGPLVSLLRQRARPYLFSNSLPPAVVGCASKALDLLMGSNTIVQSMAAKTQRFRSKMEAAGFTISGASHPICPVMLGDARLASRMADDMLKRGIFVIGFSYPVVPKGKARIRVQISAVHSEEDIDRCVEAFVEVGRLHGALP
UniProt O14772: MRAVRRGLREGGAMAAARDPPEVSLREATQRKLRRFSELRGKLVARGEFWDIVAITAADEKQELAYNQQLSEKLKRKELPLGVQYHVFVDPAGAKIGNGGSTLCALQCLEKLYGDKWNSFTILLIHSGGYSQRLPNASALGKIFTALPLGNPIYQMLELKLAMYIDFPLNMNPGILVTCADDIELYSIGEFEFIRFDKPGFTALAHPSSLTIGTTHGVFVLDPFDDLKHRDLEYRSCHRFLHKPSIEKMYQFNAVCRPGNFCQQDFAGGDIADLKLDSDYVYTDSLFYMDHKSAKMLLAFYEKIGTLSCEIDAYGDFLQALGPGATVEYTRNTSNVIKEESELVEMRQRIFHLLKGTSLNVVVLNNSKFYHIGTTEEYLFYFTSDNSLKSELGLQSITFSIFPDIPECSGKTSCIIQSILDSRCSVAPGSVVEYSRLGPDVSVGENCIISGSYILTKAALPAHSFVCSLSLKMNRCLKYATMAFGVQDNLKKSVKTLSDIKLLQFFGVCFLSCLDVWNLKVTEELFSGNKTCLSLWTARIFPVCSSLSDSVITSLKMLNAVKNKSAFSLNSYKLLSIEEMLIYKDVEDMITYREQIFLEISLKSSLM
UniProt P02774: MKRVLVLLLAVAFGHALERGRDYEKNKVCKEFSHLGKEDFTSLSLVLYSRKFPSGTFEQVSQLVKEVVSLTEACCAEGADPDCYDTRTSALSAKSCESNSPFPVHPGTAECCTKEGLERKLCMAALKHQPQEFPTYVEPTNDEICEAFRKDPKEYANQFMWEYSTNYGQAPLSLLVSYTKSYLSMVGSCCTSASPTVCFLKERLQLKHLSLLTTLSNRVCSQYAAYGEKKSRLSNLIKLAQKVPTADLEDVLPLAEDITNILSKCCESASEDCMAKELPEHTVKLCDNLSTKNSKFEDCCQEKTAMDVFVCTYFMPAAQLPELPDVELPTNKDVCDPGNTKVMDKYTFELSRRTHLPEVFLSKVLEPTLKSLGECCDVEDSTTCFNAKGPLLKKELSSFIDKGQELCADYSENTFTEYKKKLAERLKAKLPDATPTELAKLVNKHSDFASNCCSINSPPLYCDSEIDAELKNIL
UniProt Q8IVP5: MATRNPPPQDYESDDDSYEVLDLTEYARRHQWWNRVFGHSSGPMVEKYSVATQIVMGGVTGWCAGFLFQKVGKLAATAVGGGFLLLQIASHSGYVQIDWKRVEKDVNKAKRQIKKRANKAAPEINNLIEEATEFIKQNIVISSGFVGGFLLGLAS
UniProt Q8NCL4: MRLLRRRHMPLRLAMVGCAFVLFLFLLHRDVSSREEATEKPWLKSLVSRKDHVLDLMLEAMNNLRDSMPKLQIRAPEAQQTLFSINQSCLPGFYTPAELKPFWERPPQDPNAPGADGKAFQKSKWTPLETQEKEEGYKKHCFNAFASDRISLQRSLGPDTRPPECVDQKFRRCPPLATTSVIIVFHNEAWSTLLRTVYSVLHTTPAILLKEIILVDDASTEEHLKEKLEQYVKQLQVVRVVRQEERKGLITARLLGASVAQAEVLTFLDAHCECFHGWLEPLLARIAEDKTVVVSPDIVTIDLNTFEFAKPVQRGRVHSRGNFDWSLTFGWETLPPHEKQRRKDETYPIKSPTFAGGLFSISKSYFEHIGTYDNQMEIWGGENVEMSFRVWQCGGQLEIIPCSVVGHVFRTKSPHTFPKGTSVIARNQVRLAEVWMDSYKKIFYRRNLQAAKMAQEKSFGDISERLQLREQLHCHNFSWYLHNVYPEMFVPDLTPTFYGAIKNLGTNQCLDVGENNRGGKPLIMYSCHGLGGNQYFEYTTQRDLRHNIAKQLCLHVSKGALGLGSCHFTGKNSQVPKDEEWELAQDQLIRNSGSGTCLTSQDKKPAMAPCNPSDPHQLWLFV
UniProt Q9C0B1, whole entry, looked up: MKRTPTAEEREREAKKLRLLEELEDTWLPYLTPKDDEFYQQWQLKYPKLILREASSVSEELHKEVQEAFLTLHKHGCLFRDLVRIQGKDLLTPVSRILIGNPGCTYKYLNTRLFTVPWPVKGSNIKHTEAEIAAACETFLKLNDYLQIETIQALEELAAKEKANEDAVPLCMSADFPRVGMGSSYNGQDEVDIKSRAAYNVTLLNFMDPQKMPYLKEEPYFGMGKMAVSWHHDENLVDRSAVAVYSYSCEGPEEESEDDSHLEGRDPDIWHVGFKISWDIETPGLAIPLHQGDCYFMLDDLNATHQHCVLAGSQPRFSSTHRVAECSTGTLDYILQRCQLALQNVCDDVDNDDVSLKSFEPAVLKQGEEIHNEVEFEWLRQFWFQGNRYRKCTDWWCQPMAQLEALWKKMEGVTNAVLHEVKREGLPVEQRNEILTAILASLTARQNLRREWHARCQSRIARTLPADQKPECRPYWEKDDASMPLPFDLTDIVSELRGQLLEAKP
UniProt Q8WXI9: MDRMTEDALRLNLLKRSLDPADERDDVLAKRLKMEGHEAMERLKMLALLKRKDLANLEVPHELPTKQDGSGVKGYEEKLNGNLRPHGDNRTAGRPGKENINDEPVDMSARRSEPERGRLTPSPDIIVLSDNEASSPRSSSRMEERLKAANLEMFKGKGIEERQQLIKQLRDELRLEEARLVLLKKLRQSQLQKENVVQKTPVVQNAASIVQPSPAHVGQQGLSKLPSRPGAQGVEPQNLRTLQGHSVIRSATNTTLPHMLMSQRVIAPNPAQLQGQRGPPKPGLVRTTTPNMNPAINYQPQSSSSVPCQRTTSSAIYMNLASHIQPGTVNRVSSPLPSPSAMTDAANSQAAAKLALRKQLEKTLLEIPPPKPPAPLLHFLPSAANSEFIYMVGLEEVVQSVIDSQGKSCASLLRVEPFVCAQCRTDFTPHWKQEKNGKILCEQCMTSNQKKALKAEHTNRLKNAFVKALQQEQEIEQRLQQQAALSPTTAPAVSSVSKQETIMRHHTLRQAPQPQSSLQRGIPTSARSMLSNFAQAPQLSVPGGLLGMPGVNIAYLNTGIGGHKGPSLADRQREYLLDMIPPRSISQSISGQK
UniProt Q9NZC3: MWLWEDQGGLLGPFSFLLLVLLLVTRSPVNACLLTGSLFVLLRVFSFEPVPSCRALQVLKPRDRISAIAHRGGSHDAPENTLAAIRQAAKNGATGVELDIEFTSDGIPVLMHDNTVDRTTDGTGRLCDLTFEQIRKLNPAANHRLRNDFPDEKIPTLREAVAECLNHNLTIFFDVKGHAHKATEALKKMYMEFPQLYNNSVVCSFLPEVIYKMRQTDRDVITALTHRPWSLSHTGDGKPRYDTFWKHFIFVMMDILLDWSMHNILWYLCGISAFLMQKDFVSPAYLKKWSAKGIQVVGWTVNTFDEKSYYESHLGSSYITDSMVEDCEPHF
UniProt Q8IY81: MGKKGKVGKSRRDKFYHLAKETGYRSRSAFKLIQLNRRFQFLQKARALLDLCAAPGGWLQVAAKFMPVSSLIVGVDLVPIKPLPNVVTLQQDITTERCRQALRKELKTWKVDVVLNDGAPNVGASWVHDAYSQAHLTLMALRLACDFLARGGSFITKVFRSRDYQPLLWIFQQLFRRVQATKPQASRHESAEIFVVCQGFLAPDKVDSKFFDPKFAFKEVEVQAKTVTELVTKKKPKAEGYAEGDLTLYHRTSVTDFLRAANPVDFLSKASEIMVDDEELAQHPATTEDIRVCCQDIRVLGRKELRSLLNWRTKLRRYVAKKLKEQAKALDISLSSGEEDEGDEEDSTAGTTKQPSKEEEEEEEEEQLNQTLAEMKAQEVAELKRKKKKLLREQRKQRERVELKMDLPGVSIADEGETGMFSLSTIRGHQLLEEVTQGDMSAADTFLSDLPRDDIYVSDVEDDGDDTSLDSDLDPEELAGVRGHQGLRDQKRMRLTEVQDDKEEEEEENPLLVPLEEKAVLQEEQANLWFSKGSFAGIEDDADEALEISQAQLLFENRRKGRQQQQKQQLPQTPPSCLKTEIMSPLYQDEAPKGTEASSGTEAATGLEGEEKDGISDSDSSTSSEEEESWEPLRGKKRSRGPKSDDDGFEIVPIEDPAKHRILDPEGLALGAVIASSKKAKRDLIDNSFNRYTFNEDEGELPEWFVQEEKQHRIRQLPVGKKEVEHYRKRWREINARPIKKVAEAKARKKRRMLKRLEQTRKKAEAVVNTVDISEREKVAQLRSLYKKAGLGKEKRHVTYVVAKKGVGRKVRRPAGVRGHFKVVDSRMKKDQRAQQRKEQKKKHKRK
UniProt Q7L5D6: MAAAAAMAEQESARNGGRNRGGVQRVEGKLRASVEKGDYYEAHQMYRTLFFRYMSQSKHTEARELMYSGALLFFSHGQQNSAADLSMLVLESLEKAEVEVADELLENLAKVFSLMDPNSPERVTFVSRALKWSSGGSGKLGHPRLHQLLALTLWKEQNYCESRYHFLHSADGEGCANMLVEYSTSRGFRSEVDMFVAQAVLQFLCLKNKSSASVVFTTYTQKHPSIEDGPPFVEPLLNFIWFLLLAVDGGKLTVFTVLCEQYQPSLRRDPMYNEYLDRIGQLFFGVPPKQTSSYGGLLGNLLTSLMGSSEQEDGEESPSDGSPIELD
UniProt O75879: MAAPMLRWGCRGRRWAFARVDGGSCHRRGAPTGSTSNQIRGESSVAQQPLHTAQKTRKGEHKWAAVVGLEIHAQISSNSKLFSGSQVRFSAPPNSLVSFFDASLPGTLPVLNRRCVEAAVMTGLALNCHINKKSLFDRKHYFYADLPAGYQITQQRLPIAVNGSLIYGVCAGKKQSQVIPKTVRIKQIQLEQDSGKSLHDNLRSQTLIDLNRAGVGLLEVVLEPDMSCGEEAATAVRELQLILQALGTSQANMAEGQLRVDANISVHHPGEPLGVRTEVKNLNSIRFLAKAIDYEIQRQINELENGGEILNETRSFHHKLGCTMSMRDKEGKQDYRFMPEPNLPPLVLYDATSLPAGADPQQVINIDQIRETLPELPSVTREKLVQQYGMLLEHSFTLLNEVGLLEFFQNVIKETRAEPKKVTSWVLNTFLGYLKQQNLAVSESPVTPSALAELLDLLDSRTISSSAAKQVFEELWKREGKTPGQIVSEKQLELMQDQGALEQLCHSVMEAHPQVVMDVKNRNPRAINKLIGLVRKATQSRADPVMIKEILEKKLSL
UniProt Q96DB9: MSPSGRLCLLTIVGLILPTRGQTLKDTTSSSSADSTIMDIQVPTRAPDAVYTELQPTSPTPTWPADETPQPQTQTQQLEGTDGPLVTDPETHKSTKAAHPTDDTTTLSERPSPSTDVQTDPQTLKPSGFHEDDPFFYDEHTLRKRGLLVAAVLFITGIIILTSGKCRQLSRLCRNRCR

Key:
Assay in all cases: log2 fold change, soluble protein after heating vs DMSO (PISA); higher = thermal stabilisation; K562 cells, 10 uM, 30 min; active = over 0.2 and 3.5 SD of the protein, either way, in both replicates (recomputed)
[1] = compound: NC(=O)Nc1cc(-c2cccc(F)c2)sc1C(=O)N[C@H]1CCCNC1
Procedure, shortened: (§1)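 Quantification of soluble protein used TMTpro 16plex LC-MS/MS, with channel sums equalised. Samples were the supernatant after 21,000xg for 90 min of pooled aliquots from K562 cells (2×10^6 cells/mL) treated with 10 μM compound for 30 min, heated for 3 min over 48°C-58°C, and extracted in PBS with 0.5% NP-40 at 4°C. Values, from duplicates, describe thermal stability against control samples on a log2 fold-change scale.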

[2] = compound: NC(=O)c1cnc(N[C@@H]2CCCC[C@@H]2N)nc1Nc1cccc(-n2nccn2)c1
Procedure, shortened: as §1

[3] = compound: NC1(c2ccc(-c3nc4ccn5c(=O)[nH]nc5c4cc3-c3ccccc3)cc2)CCC1
Procedure, shortened: as §1

[4] = compound: NCC(=O)Nc1ccc(-n2nc(C(F)(F)F)cc2-c2ccc3c(ccc4ccccc43)c2)cc1
Procedure, shortened: as §1

entinostat = compound: Nc1ccccc1NC(=O)c1ccc(CNC(=O)OCc2cccnc2)cc1 [entinostat]
Procedure, shortened: as §1

vorinostat = compound: O=C(CCCCCCC(=O)Nc1ccccc1)NO [vorinostat]
Procedure, shortened: as §1

citarinostat = compound: O=C(CCCCCCNC(=O)c1cnc(N(c2ccccc2)c2ccccc2Cl)nc1)NO [citarinostat]
Procedure, shortened: as §1

silmitasertib = compound: O=C(O)c1ccc2c(c1)nc(Nc1cccc(Cl)c1)c1ccncc12 [silmitasertib]
Procedure, shortened: as §1

[5] = compound: O=C1NC(=O)C(c2cnc3ccccn23)=C1c1cn2c3c(cc(F)cc13)CN(C(=O)N1CCCCC1)CC2
Procedure, shortened: as §1

[6] = compound: c1cc(OCCN2CCCCC2)cc(-c2n[nH]c3ccc(-c4nnc[nH]4)cc23)c1
Procedure, shortened: as §1

entospletinib = compound: c1cn2cc(-c3ccc4cn[nH]c4c3)nc(Nc3ccc(N4CCOCC4)cc3)c2n1 [entospletinib]
Procedure, shortened: as §1

Measured: log2 fold change

FUNDC2 (UniProt Q9BWH2)
inactive: [1] -0.029 | [2] -0.01 | [3] 0.001 | [4] -0.007 | entinostat -0.025 | vorinostat -0.022 | citarinostat -0.032 | silmitasertib -0.01 | [5] -0.025 | [6] -0.035 | entospletinib 0.045

FUS (UniProt P35637)
inactive: [1] 0.012 | [2] 0.086 | [3] 0.199 | [4] 0.075 | entinostat -0.093 | vorinostat 0.012 | citarinostat -0.094 | silmitasertib 0.06 | [5] 0.148 | [6] -0.091 | entospletinib 0.106

GDI2 (UniProt P50395)
inactive: [1] -0.026 | [2] -0.036 | [3] -0.003 | [4] -0.02 | entinostat -0.007 | vorinostat 0.01 | citarinostat -0.029 | silmitasertib -0.023 | [5] -0.051 | [6] -0.004 | entospletinib 0.026

GAMT (UniProt Q14353)
inactive: [1] 0 | [2] -0.008 | [3] -0.13 | [4] 0.034 | entinostat -0.152 | vorinostat 0.025 | citarinostat 0.102 | silmitasertib -0.015 | [5] -0.062 | [6] -0.094 | entospletinib -0.062

GGT2 isoform 3 (UniProt P36268)
inactive: [1] 0 | [2] -0.039 | [3] 0.112 | [4] 0.003 | entinostat -0.037 | vorinostat 0.004 | citarinostat -0.058 | silmitasertib -0.007 | [5] -0.079 | [6] -0.056 | entospletinib 0.05

FUBP1 (UniProt Q96AE4)
inactive: [1] 0.149 | [2] 0.061 | [3] 0.07 | [4] 0.145 | entinostat 0.03 | vorinostat 0.04 | citarinostat 0.025 | silmitasertib 0.004 | [5] -0.029 | [6] 0.018 | entospletinib -0.044

GCAT isoform 2 (UniProt O75600)
inactive: [1] -0.13 | [2] -0.101 | [3] -0.211 | [4] -0.041 | entinostat -0.035 | vorinostat -0.023 | citarinostat -0.062 | silmitasertib 0.049 | [5] 0.062 | [6] 0.032 | entospletinib 0.072

FPGT (UniProt O14772)
inactive: [1] 0.018 | [2] -0.018 | [3] -0.088 | [4] -0.068 | entinostat -0.029 | vorinostat 0.032 | citarinostat 0.03 | silmitasertib -0.019 | [5] -0.081 | [6] -0.051 | entospletinib -0.022

GFPT1 (UniProt Q06210)
inactive: [1] -0.048 | [2] 0.007 | [3] -0.059 | [4] -0.018 | entinostat 0.009 | vorinostat -0.002 | citarinostat 0.055 | silmitasertib -0.054 | [5] -0.077 | [6] -0.009 | entospletinib 0.028

GART (UniProt P22102)
inactive: [1] -0.062 | [2] -0.119 | [3] -0.116 | [4] -0.067 | entinostat 0.032 | vorinostat 0.033 | citarinostat 0.026 | silmitasertib -0.005 | [5] -0.034 | [6] -0.028 | entospletinib 0.045

GC isoform 3 (UniProt P02774)
inactive: [1] 0.214 | [2] 0.222 | [4] 0.17 | entinostat -0.03 | vorinostat -0.135 | citarinostat 0.037 | [5] 0.025 | [6] 0.425 | entospletinib 0.127

FOPNL (UniProt Q96NB1)
inactive: [1] -0.044 | [2] -0.042 | [3] -0.01 | [4] -0.042 | entinostat -0.099 | vorinostat 0.184 | silmitasertib 0.005 | [5] -0.06

FUT11 (UniProt Q495W5)
inactive: [1] -0.006 | [2] -0.017 | [3] -0.046 | [4] 0.079 | entinostat 0.119 | vorinostat -0.077 | silmitasertib -0.054 | [5] 0.061

FUNDC1 (UniProt Q8IVP5)
inactive: [1] -0.058 | [3] -0.104 | entinostat 0.01 | silmitasertib 0.055

GALNT6 (UniProt Q8NCL4)
inactive: [1] 0.023 | [2] -0.005 | [3] -0.242 | entinostat -0.07 | silmitasertib 0.073 | [5] -0.141

FTO (UniProt Q9C0B1)
inactive: [1] -0.022 | [2] -0.012 | [3] -0.037 | [4] 0.045 | entinostat -0.05 | vorinostat 0.013 | citarinostat 0.059 | silmitasertib 0.004 | [5] -0.014 | [6] -0.029 | entospletinib 0.009

GATAD2B (UniProt Q8WXI9)
inactive: [1] 0.049 | [3] -0.093 | [4] -0.079 | entinostat 0.037 | citarinostat -0.027 | silmitasertib -0.063 | [5] 0.069 | [6] -0.197 | entospletinib -0.288

GGCT (UniProt O75223)
inactive: [1] -0.047 | [2] -0.049 | [3] -0.045 | [4] 0.01 | entinostat -0.018 | vorinostat 0.004 | citarinostat -0.014 | silmitasertib -0.016 | [5] -0.124 | [6] 0.294 | entospletinib 0.058

GDE1 (UniProt Q9NZC3)
inactive: [1] -0.001 | [2] 0.058 | [3] 0.094 | [4] -0.01 | entinostat -0.065 | citarinostat 0.024 | silmitasertib -0.086 | [5] -0.008 | [6] 0.032

FZD5 (UniProt Q13467)
inactive: [1] -0.009 | [3] -0.366 | entinostat -0.149 | silmitasertib 0.234 | [5] -0.328

GGT1 (UniProt P19440)
inactive: [1] 0.05 | [2] 0.157 | [3] -0.029 | entinostat -0.017 | vorinostat 0.042 | silmitasertib -0.035 | [5] -0.023

FTSJ3 (UniProt Q8IY81)
inactive: [1] 0.158 | [2] -0.026 | entinostat -0.031 | vorinostat -0.184

Copied from the listing (2 entries):
FZD5 (UniProt Q13467)
inactive: [1] -0.009 | [3] -0.366 | entinostat -0.149 | silmitasertib 0.234 | [5] -0.328

GGT1 (UniProt P19440)
inactive: [1] 0.05 | [2] 0.157 | [3] -0.029 | entinostat -0.017 | vorinostat 0.042 | silmitasertib -0.035 | [5] -0.023

Carrying on.

GET4 (UniProt Q7L5D6)
inactive: [1] 0.006 | [2] -0.104 | [3] -0.116 | [4] -0.009 | entinostat 0.033 | vorinostat 0.045 | citarinostat 0.025 | silmitasertib 0.06 | [5] -0.009 | [6] -0.064 | entospletinib 0.01

GATB (UniProt O75879)
inactive: [1] -0.297 | [2] 0.008 | [3] -0.258 | [4] -0.182 | entinostat 0.089 | vorinostat -0.134 | silmitasertib -0.018 | [5] -0.221

FXYD5 (UniProt Q96DB9)
inactive: [1] -0.251 | [2] -0.159 | [4] -0.16 | entinostat 0.141 | vorinostat -0.13
